Substitutions are numbered along the chain they refer to. These are yes or no findings as the source states them, for the method shown. Tags and fused reporters may be left off the sequences shown.

What all share (experiment): two-hybrid; LexA-Cdc1 bait (pBTM116 or pBTM116BN) with Gal4 activation domain-Cdc27 prey (pGAD2F-Cdc27) in S. cerevisiae CTY10-5d; ONPG liquid culture beta-galactosidase assay, mean of triplicates, as percent of wild-type Cdc1
One assay addresses T1, Cdc1-E9 (Schizosaccharomyces pombe, UniProt P87324 1-462, Tyr-GlyGlyTyrProTyr-Gly).
T1 construct: Cdc1, S. pombe, with a pentapeptide inserted after residue 124; source: yeast two-hybrid fusion, in S. cerevisiae CTY10-5d
T1 sequence (looked up): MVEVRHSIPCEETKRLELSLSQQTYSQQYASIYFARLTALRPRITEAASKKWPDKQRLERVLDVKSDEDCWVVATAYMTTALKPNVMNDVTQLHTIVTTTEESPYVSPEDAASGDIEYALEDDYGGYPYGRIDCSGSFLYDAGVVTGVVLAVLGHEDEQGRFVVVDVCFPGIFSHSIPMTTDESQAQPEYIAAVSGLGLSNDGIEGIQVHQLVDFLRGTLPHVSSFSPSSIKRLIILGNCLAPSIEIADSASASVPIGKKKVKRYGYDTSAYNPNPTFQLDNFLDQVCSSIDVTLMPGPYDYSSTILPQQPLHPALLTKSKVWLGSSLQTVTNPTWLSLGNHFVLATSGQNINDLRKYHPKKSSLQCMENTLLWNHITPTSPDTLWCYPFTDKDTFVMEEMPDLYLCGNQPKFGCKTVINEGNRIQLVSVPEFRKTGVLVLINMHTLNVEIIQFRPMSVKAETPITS

In a further assay the target is T2, Cdc1-J2 (Schizosaccharomyces pombe, UniProt P87324 1-462, Tyr-ArgGlyThrProTyr-Ser).
T2 construct: Cdc1, S. pombe, with a pentapeptide inserted after residue 25; also called J18; J20; source: yeast two-hybrid fusion, in S. cerevisiae CTY10-5d
T2 sequence (looked up): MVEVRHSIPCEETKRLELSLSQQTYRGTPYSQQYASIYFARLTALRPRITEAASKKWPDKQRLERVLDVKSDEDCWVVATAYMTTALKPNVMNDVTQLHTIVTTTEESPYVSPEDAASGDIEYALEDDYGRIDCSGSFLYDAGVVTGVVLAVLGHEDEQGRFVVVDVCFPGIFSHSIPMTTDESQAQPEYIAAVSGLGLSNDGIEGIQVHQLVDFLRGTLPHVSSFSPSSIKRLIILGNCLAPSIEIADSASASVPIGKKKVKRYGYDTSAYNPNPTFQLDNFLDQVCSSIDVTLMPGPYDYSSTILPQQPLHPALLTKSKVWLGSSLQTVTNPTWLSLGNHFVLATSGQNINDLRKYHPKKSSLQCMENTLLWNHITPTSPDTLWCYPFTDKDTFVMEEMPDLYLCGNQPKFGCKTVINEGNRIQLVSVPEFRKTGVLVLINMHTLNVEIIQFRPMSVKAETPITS

A further assay has as its target T3, Cdc1-J6 (Schizosaccharomyces pombe, UniProt P87324 1-462, Tyr-GlyValProHisTyr-Gly).
T3 construct: Cdc1, S. pombe, with a pentapeptide inserted after residue 124; source: yeast two-hybrid fusion, in S. cerevisiae CTY10-5d
T3 sequence (looked up): T1 sequence (looked up) with G126V, Y127P, P128H

Another assay addresses T4, Cdc1-J1 (Schizosaccharomyces pombe, UniProt P87324 1-462, Thr-GlyValProLeuThr-Gly).
T4 construct: Cdc1, S. pombe, with a pentapeptide inserted after residue 141; source: yeast two-hybrid fusion, in S. cerevisiae CTY10-5d
T4 sequence (looked up): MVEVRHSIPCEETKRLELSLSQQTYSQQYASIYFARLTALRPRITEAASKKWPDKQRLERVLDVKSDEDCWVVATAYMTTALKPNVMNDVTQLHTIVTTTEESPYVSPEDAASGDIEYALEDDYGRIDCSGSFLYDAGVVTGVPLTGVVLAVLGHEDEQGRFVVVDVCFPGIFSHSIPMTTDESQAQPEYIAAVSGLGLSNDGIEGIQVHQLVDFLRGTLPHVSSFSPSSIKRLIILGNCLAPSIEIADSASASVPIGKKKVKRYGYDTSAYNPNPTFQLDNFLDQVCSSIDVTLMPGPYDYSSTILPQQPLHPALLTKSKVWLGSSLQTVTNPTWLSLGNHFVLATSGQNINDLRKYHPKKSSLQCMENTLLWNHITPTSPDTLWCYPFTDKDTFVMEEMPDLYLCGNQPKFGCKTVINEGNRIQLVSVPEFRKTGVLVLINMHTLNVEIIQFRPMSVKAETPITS

B1: Cdc27 (fission yeast DNA polymerase delta C-subunit) (natural protein, Schizosaccharomyces pombe, UniProt P30261 1-372, looked up)
chain: MEEWRNFLDIKVINESSLVTVDNLSLQLDISSEKAQEYLNMFYQGNDFLYPIYLIHGQPIDDEINLEIDEESQPISNFPVLQYILCDKSSLQEKQSRLKSGYKTVIFALSSAPLSDFDELLPAVYEIREKDVLYKKEDADKYGFIFNENSVPRVLKKAPSTHSPQLSVPSKTSTIDKTDTRSTEKTKGKDIFSNARNQKGNSSRKNKKAPLENHKEKEPLLPKEEKLSEQAKRERDDLKNIMQLEDESVSTTSVHDSEDDNLDSNNFQLEIGTEAKSAAPDEPQEIIKSVSGGKRRGKRKVKKYATTKDEEGFLVTKEEEVWESFSEDENISTGTSNVVRNKPTTVNIATKKKNTAQSKPQQKSIMSFFGKK
notes: DNA polymerase delta C-subunit Cdc27, S. pombe; prey plasmid pGAD2F-Cdc27; also called pGAD2F-Cdc27; source: yeast two-hybrid fusion, in S. cerevisiae CTY10-5d
For the molecule B1, the binding result with Cdc1-E9, with Cdc1-J2, with Cdc1-J6 and with Cdc1-J1 was “no binding (tested: <1% of wild type (Table 1))” throughout.
